Results on four molecules are retold here after US20260265394A1 (CARTESIAN THERAPEUTICS, published 2026).

The experiment deals with T1, allophycocyanin (APC)-conjugated BCMA (Recombinant Human TNFRSF17 protein, Fc-tagged, APC labeled); Creative … (human, UniProt Q02223 1-54, allophycocyanin (APC) conjugated).
T1 construct: Bought reagent, used at 0.4 ug/mL to stain CAR T cells; also called BCMA-APC; recombinant BCMA-APC; not shown: Fc tag
T1 sequence (looked up): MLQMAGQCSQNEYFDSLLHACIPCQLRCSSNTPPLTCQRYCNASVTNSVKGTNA
Nature of the experiment: flow cytometry, CAR T cells stained with BCMA-APC. How it is done:
CAR T cells obtained from the above-described process were tested for viability, CAR protein expression, BCMA binding, cytotoxicity, i.e., the ability to kill BCMA+ myeloma (tumor) cells, and cytokine production. Resistance of the CAR protein to downregulation was tested by incubation of CAR T cells with, or without, BCMA+ myeloma cells, followed by analysis of CAR expression. Viability, CAR expression, and BCMA binding were determined by flow cytometry on a Guava® EasyCyte® 12HT Flow cytometer (Luminex). To test viability, a sample of the CAR T cells was mixed with propidium iodide and acridine orange and analyzed by fluorescence microscopy using a Nexcelom Auto 2000 cytometer. To test CAR protein expression and BCMA binding, a sample of the CAR T cells was incubated with 0.4 μg/mL of allophycocyanin (APC)-conjugated BCMA (Recombinant Human TNFRSF17 protein, Fc-tagged, APC labeled; Creative Biomart, Shirley, NY). CAR expression was assessed on the flow cytometer with electronic gating on fluorescence in the red channel to detect presence or absence of emission from BCMA-APC on CAR-positive and CAR-negative cells. BCMA binding was determined by measuring the intensity of fluorescence in the red channel to determine the relative quantity of BCMA-APC bound to labelled CAR-positive cells. For the viability, expression, cytotoxicity, cytokine production and BCMA binding assays, control (non-CAR) CD8+ T cells generated by electroporation without IVT mRNA were tested as a parallel control.

B1: Anti-BCMA CAR containing K-A CD3z only (SEQ ID NO: 3) (receptor)
chain: DIVLTQSPASLAVSPGQRATITCRASESVTILGSHLIHWYQQKPGQPPKLLINLASNVNTGVPARFSGSGSGTDFTLTISSVEPEDTANYYCLQSRTLPRTFGQGTKVEIKGSTSGSGKPGSGEGSTKGQIQLVQSGPELKKPGGSVKISCKASGYTFTDYSINWVRQAPGKGLEWVGWINTETREPAYAYDFRGRFTFSADTSKSMAYLQINSLRAEDTAVYYCALDYTYGMDYWGQGTLVTVSSFVPVFLPAKPTTTPAPRPPTPAPTIASQPLSLRPEACRPAAGGAVHTRGLDFACDIYIWAPLAGTCGVLLLSLVITLYCNHRNRVAFSRSADAPAYQQGQNQLYNELNLGRREEYDVLDARRGRDPEMGGAPQRRANPQEGLYNELQADAMAEAYSEIGMAGERRRGAGHDGLYQGLSTATADTYDALHMQALPPR
notes: Chimeric antigen receptor on human CD8+ T cells; also called K-A CAR
For B1, the binding result is on record as “binds”.

B2: Anti-BCMA CAR containing K-D CD3z only (SEQ ID NO: 4) (receptor)
chain: DIVLTQSPASLAVSPGQRATITCRASESVTILGSHLIHWYQQKPGQPPKLLINLASNVNTGVPARFSGSGSGTDFTLTISSVEPEDTANYYCLQSRTLPRTFGQGTKVEIKGSTSGSGKPGSGEGSTKGQIQLVQSGPELKKPGGSVKISCKASGYTFTDYSINWVRQAPGKGLEWVGWINTETREPAYAYDFRGRFTFSADTSKSMAYLQINSLRAEDTAVYYCALDYTYGMDYWGQGTLVTVSSFVPVFLPAKPTTTPAPRPPTPAPTIASQPLSLRPEACRPAAGGAVHTRGLDFACDIYIWAPLAGTCGVLLLSLVITLYCNHRNRVDFSRSADAPAYQQGQNQLYNELNLGRREEYDVLDDRRGRDPEMGGDPQRRDNPQEGLYNELQDDDMAEAYSEIGMDGERRRGDGHDGLYQGLSTATDDTYDALHMQALPPR
notes: Chimeric antigen receptor on human CD8+ T cells; also called K-D CAR
On to B2, for which the binding result is reported as “binds”.

B3: Anti-BCMA CAR containing K-R CD3z only (SEQ ID NO: 2) (receptor)
chain: DIVLTQSPASLAVSPGQRATITCRASESVTILGSHLIHWYQQKPGQPPKLLINLASNVNTGVPARFSGSGSGTDFTLTISSVEPEDTANYYCLQSRTLPRTFGQGTKVEIKGSTSGSGKPGSGEGSTKGQIQLVQSGPELKKPGGSVKISCKASGYTFTDYSINWVRQAPGKGLEWVGWINTETREPAYAYDFRGRFTFSADTSKSMAYLQINSLRAEDTAVYYCALDYTYGMDYWGQGTLVTVSSFVPVFLPAKPTTTPAPRPPTPAPTIASQPLSLRPEACRPAAGGAVHTRGLDFACDIYIWAPLAGTCGVLLLSLVITLYCNHRNRVRFSRSADAPAYQQGQNQLYNELNLGRREEYDVLDRRRGRDPEMGGRPQRRRNPQEGLYNELQRDRMAEAYSEIGMRGERRRGRGHDGLYQGLSTATRDTYDALHMQALPPR
notes: Chimeric antigen receptor on human CD8+ T cells; also called K-R CAR
Consider B3, for which the binding result is on record as “binds”.

B4: Anti-BCMA CAR containing K-E CD3z only (SEQ ID NO: 5) (receptor)
chain: DIVLTQSPASLAVSPGQRATITCRASESVTILGSHLIHWYQQKPGQPPKLLINLASNVNTGVPARFSGSGSGTDFTLTISSVEPEDTANYYCLQSRTLPRTFGQGTKVEIKGSTSGSGKPGSGEGSTKGQIQLVQSGPELKKPGGSVKISCKASGYTFTDYSINWVRQAPGKGLEWVGWINTETREPAYAYDFRGRFTFSADTSKSMAYLQINSLRAEDTAVYYCALDYTYGMDYWGQGTLVTVSSFVPVFLPAKPTTTPAPRPPTPAPTIASQPLSLRPEACRPAAGGAVHTRGLDFACDIYIWAPLAGTCGVLLLSLVITLYCNHRNRVEFSRSADAPAYQQGQNQLYNELNLGRREEYDVLDERRGRDPEMGGEPQRRENPQEGLYNELQEDEMAEAYSEIGMEGERRRGEGHDGLYQGLSTATEDTYDALHMQALPPR
notes: Chimeric antigen receptor on human CD8+ T cells; also called K-E CAR
As for B4, the binding result is on record as “binds”.
